According to the supplement of paper PMC12067093, “Discovery and optimisation of a covalent ligand for TRIM25 and its application to targeted protein ubiquitination” (Chemical Science, 2025):
The list shows a part of the results.

The chains behind the UniProt entries cited, without tags or fusion partners. Where a name states a change or a piece, a line headed by the entry shows the natural chain unless it says otherwise.
UniProt Q7LDG7: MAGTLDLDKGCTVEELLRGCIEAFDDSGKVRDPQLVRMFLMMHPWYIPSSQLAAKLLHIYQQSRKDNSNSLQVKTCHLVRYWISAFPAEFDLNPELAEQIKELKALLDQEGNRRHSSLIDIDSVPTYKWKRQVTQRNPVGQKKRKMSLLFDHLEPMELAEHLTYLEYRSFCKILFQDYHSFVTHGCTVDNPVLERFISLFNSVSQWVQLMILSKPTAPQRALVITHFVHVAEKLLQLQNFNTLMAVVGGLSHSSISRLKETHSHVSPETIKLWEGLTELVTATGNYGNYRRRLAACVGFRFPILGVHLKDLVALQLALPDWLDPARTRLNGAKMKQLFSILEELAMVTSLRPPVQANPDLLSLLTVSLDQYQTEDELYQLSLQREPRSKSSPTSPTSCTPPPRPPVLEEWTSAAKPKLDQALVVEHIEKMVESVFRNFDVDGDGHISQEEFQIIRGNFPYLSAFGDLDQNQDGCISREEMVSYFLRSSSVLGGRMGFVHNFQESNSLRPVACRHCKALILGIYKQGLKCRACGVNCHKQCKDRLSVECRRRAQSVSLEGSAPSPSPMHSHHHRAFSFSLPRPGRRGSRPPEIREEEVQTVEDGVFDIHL
UniProt Q96PM5: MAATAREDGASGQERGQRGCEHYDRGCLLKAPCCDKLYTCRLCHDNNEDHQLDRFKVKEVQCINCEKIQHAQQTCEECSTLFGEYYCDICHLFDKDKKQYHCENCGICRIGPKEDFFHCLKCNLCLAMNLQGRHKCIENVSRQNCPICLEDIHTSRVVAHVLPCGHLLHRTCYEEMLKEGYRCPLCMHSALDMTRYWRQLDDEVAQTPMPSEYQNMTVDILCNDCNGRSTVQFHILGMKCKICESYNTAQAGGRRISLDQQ
UniProt P49792, whole entry, looked up: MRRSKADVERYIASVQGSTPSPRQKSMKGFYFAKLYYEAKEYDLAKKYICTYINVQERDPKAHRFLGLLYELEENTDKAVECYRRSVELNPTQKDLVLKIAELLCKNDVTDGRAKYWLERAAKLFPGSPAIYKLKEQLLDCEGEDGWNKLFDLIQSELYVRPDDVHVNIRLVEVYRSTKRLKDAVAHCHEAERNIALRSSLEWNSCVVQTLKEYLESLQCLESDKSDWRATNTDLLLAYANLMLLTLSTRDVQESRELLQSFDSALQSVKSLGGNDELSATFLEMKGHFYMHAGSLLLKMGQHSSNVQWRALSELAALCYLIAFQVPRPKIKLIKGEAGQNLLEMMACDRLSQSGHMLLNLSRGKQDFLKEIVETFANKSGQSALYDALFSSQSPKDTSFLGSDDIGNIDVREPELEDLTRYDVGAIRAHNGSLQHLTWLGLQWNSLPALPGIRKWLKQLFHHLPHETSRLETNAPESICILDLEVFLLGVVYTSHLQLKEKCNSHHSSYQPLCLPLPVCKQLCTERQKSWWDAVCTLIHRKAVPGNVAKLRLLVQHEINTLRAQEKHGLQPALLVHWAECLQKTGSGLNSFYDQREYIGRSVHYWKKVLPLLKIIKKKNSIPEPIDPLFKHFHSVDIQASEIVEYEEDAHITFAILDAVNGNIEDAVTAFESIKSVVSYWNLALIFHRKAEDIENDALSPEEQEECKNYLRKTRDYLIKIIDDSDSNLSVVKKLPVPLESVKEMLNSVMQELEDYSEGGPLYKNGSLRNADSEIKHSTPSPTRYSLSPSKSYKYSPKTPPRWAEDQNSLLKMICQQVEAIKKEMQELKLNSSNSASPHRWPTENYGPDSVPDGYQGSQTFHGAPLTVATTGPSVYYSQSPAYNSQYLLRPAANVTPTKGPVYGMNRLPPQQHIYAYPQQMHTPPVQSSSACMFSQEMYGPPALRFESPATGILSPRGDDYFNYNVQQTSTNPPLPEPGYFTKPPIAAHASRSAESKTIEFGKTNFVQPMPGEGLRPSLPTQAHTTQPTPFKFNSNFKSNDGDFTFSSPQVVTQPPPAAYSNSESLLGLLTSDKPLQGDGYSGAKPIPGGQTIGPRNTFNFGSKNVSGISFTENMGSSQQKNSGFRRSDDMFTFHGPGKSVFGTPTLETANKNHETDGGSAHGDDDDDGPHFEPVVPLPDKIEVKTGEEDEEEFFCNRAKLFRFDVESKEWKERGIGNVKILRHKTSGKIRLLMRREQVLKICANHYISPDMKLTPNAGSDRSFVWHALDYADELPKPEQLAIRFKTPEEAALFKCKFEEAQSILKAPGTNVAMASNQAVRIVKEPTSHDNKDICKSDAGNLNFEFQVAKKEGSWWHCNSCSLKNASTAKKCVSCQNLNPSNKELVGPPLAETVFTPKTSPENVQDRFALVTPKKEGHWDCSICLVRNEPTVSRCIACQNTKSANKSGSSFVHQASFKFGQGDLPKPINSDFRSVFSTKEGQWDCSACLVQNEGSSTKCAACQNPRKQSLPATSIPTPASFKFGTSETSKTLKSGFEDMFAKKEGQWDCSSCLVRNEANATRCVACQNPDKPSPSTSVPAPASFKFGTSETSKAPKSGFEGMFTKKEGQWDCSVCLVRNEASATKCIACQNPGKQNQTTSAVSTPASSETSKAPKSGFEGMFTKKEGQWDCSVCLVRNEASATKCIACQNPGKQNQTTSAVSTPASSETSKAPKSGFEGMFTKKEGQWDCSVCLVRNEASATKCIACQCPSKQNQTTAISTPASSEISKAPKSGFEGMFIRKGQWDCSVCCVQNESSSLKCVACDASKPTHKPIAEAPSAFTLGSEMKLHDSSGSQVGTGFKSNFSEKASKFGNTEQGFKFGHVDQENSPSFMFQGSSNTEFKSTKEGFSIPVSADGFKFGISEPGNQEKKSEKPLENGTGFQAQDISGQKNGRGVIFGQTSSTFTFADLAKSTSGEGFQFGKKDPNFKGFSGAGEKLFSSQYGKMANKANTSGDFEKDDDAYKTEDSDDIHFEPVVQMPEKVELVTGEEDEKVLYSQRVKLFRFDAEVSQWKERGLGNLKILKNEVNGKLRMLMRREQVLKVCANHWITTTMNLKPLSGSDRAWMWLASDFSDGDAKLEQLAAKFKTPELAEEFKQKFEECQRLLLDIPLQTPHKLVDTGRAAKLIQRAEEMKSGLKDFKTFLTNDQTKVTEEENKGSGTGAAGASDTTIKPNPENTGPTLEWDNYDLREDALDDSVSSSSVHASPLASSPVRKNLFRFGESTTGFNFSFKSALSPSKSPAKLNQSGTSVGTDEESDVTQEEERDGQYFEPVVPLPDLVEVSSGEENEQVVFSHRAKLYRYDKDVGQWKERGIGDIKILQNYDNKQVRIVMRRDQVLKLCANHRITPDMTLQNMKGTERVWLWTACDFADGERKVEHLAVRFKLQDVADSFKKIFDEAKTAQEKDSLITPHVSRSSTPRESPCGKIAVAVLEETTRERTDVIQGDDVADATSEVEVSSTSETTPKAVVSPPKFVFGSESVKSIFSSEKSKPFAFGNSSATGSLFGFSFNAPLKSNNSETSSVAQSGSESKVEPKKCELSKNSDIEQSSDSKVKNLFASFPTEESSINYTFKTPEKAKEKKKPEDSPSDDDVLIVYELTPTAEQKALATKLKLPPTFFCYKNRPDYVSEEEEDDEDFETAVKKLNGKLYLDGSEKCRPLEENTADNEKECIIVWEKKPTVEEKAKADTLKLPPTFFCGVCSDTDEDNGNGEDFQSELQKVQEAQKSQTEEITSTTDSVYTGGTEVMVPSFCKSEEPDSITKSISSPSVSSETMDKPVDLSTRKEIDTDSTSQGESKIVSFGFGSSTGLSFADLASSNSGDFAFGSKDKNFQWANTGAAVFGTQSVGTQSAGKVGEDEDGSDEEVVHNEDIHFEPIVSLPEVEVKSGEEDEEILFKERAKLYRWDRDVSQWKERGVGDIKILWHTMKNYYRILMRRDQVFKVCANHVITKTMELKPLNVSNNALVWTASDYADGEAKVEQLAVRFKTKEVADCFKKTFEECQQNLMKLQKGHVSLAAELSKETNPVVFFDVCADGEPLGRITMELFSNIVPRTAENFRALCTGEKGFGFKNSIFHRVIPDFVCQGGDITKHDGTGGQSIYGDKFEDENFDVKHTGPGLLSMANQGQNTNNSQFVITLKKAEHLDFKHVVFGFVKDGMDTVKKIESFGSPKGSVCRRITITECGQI
UniProt Q9H6Z4: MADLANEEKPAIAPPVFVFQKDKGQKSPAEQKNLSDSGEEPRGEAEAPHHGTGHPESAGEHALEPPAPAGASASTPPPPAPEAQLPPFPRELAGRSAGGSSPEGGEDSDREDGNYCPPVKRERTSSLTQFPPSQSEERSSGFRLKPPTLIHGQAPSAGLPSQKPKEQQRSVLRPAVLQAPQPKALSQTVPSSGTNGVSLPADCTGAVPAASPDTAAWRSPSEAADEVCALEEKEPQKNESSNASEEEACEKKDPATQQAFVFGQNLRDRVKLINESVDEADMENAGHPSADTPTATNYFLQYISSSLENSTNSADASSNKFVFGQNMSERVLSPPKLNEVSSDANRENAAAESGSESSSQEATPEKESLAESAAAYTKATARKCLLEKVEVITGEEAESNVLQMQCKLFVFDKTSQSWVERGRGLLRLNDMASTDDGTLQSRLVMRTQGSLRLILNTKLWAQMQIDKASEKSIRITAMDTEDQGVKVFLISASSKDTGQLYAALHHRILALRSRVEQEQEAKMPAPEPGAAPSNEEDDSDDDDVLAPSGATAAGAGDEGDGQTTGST
UniProt Q8N0V3: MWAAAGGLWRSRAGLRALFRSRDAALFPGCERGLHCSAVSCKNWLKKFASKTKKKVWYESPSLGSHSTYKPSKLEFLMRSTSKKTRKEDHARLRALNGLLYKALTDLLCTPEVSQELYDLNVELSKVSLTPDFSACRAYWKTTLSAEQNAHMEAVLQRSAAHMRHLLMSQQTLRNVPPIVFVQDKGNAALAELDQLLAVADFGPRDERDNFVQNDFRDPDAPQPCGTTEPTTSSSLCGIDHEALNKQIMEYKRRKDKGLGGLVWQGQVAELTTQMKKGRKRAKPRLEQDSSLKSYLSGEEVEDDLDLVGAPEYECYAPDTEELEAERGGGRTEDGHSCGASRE
UniProt Q8WWW0: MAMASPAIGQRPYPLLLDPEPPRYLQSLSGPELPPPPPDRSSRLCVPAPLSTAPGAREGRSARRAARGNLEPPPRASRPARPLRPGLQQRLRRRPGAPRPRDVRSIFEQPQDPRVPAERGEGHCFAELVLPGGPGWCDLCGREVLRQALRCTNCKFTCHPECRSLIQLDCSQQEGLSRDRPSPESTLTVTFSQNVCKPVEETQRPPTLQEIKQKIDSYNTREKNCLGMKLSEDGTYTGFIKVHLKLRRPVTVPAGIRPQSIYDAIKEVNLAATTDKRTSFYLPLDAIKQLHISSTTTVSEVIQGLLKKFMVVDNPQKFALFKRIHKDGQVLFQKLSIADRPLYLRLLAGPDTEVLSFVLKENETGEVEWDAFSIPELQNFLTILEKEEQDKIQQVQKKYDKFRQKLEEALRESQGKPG
UniProt Q9Y2P8: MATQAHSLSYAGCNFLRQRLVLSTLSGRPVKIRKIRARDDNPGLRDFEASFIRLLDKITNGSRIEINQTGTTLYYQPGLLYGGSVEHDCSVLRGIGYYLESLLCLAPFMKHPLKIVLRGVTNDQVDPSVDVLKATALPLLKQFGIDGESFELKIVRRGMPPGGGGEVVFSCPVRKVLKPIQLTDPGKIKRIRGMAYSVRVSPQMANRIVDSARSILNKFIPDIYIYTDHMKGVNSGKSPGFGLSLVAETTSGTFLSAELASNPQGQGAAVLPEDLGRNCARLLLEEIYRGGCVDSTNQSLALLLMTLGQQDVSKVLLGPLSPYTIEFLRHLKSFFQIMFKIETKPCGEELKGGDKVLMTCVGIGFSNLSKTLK
UniProt P78406: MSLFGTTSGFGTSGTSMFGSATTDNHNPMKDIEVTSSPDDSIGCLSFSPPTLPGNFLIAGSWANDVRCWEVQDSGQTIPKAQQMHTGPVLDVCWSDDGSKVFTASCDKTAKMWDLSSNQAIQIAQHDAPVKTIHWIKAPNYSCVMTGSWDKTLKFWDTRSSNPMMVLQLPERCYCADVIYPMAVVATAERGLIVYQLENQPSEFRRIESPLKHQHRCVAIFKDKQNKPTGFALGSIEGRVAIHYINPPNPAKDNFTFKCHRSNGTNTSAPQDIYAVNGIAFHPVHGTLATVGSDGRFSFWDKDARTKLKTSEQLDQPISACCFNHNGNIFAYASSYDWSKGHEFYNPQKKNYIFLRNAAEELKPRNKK
UniProt P29558: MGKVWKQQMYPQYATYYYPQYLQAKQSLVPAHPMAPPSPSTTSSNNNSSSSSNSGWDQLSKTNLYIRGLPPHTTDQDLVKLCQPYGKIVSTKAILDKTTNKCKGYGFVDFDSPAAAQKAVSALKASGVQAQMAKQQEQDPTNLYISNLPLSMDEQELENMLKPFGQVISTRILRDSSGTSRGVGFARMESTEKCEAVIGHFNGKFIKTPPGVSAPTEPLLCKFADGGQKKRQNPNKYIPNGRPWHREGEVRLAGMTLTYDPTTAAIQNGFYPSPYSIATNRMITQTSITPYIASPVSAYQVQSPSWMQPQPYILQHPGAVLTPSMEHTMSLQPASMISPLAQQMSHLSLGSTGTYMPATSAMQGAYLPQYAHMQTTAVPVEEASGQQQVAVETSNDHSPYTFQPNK

Compound: CC1Cc2ccccc2N1C(=O)C1CCCN(C1)C(=O)CCl (mixture of isomers) [TRIM25 ligand 11 (diastereomer mixture)]
Assay: probe-labelled cysteine peptide fold change vs DMSO (competition) (log2 fold change); higher = less target engagement (more negative = stronger competition)
Conditions: THP-1, incubation time: 4 h
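Note: competitive chemoproteomic profiling in live THP-1 cells with an iodoacetamide desthiobiotin (IA-DTB) probe, comparing probe-labelled peptide intensities in compound-treated cells against DMSO-treated controls.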

Target | probe-labelled cysteine peptide fold change (10 µM) | probe-labelled cysteine peptide fold change (50 µM)
RASA1_P20936_828_QSCELSPSK (UniProt P20936) | 0.153 | -0.112
RANGAP1_P46060_573_ALAPLLLAFVTKPNSALESCSFAR (UniProt P46060) | -0.308 | -0.131
RASGRP2_Q7LDG7_186_ILFQDYHSFVTHGCTVDNPVLER (UniProt Q7LDG7) | 0.0656 | 0.0818
RBM28_Q9NW13_71_EITTFEGCK (UniProt Q9NW13) | -0.0134 | 0.0154
RCHY1_Q96PM5_20_GCEHYDR (UniProt Q96PM5) | -0.0387 | -0.115
RCC1_P18754_93_SGQVYSFGCNDEGALGR (UniProt P18754) | 0.0702 | 0.0939
RBM26_Q5T8P6_53_ALCIDQLDVFLQK (UniProt Q5T8P6) | 0.0876 | -0.00108
RARS2_Q5T160_74_CDTVVSEISTGQR (UniProt Q5T160) | 0.227 | -0.0404
RCC2_Q9P258_209_LIEGLSHEVIVSAACGR (UniProt Q9P258) | -0.000959 | 0.0564
RBM25_P49756_83_AKENDENCGPTTTVFVGNISEK (UniProt P49756) | -0.237 | -0.334
RANBP2_P49792_1375_CVSCQNLNPSNK (UniProt P49792) | 0.0315 | 0.125
RAPGEF6_Q8TEU7_796_EVVFHAVHEFGLTGASDTYSLCEVSVTPEGVIK (UniProt Q8TEU7) | 0.228 | -0.0184
RBM39_Q14498_303_GYGFITFSDSECAK (UniProt Q14498) | -0.0687 | 0.0112
RANBP3_Q9H6Z4_249_NESSNASEEEACEK (UniProt Q9H6Z4) | 0.387 | -0.572
RBM34_P42696_196_TVFVGNLPVTCNKK (UniProt P42696) | -0.175 | -0.38
RBFA_Q8N0V3_136_VSLTPDFSACR (UniProt Q8N0V3) | -0.194 | 0.0213
RALY_Q9UKM9_51_VAGCSVHK (UniProt Q9UKM9) | 0.114 | 0.0617
RALGAPA1_Q6GYQ0_424_QAFLLPICEAAAMR (UniProt Q6GYQ0) | 0.13 | 0.00393

Target | probe-labelled cysteine peptide fold change (10 µM) | probe-labelled cysteine peptide fold change (50 µM)
RALGAPB_Q86X10_278_VPDEDASLIPPEMDNECVAQTWFR (UniProt Q86X10) | -0.291 | -0.533
RB1CC1_Q8TDY2_946_LLEMENIMHSQNCEIK (UniProt Q8TDY2) | 0.0685 | -0.163
RASSF5_Q8WWW0_225_NCLGMK (UniProt Q8WWW0) | -0.142 | -0.21
RCL1_Q9Y2P8_292_GGCVDSTNQSLALLLMTLGQQDVSK (UniProt Q9Y2P8) | 0.137 | 0.0113
RBM27_Q9P2N5_776_LGHAGGNQSDASHLLNQSGGAGEDCQIFSTPGHPK (UniProt Q9P2N5) | -0.0105 | -0.127
RAD54L2_Q9Y4B4_453_ALCRPGPDVVICDEGHR (UniProt Q9Y4B4) | -0.0529 | -0.116
RAE1_P78406_106_VFTASCDK (UniProt P78406) | -0.0316 | -0.0296
RASSF2_P50749_12_MDYSHQTSLVPCGQDK (UniProt P50749) | 0.155 | -0.142
RBBP6_Q7Z6E9_161_KPLGPPPPSYTCFR (UniProt Q7Z6E9) | -0.0221 | 0.059
RANBP2_P49792_1612_EGQWDCSVCLVR (UniProt P49792) | -0.0422 | -0.0168
RCHY1_Q96PM5_148_QNCPICLEDIHTSR (UniProt Q96PM5) | 0.451 | 0.316
RCHY1_Q96PM5_119_EDFFHCLK (UniProt Q96PM5) | -0.069 | 0.0278
RASGRP2_Q7LDG7_548_DRLSVECR (UniProt Q7LDG7) | -0.162 | -0.156
RANBP2_P49792_3122_VIPDFVCQGGDITK (UniProt P49792) | 0.0475 | 0.0122
RBMS1_P29558_194_CEAVIGHFNGK (UniProt P29558) | -0.0517 | 0.123
RARS_P54136_502_VLTAEELNAAQTSVAYGCIK (UniProt P54136) | 0.0398 | 0.105
RASAL2_Q9UJF2_360_CGEHDVLIFR (UniProt Q9UJF2) | 0.0414 | 0.0685

As entered above.
Value for RBMS1_P29558_194_CEAVIGHFNGK (UniProt P29558) under probe-labelled cysteine peptide fold change (10 µM): -0.0517
Value for RCHY1_Q96PM5_119_EDFFHCLK (UniProt Q96PM5) under probe-labelled cysteine peptide fold change (10 µM): -0.069
